Data as given in PubChem BioAssay AID1259254 (NCATS, 2017).

- Purpose: 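Gene knock-downs that lead to re-replication, shown by excess G2 DNA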 (primary screen)
- Cell system: human HCT116 colorectal cancer cells
- Knock-down reagent: single siRNA against human genes
- Time to read-out: 3 days
- Detection: 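Imaged Hoechst DNA stain sorts each cell into a cycle phase by DNA amount; per plate, G2 fraction set to 0% for non-targeting and 100% for GMNN siRNA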
- Reading the numbers: G2 robust z-score: higher = more G2 cells, more excess DNA replication
- Active means: 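Active siRNAs have a G2 robust z of 5 or more median absolute deviations over the median, which in these data means about 38% or higher of GMNN control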
The deposit covers about 59,000 reagents; shown is a random part of them. In the full data, about 1,550 (2.6%) got an active call. 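G2 share is only a proxy for re-replication; each gene was hit by three separate siRNAs, and active genes were retested.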 Entries without a mark were called inactive. The numbers tell different reagents against one gene apart. Further read-outs or replicates are left out here. No sequences are given here. Not stated in the record: the amount of reagent.

| target gene | reagent no. | G2 robust z-score |
| --- | --- | --- |
| XCR1 (GeneID 2829) | 1 | -0.25 |
| XCR1 (GeneID 2829) | 2 | 1 |
| XCR1 (GeneID 2829) | 3 | -1.14 |
| PDK2 (GeneID 5164) | 1 | -0.197 |
| PDK2 (GeneID 5164) | 2 | 0.912 |
| PDK2 (GeneID 5164) | 3 | -0.766 |
| SPATA17 (GeneID 128153) | 1 | -0.114 |
| SPATA17 (GeneID 128153) | 2 | 4.47 |
| SPATA17 (GeneID 128153) | 3 | 0.642 |
| ATF1 (GeneID 466) | 1 | 0.0111 |
| ATF1 (GeneID 466) | 2 | -1.44 |
| ATF1 (GeneID 466) | 3 | 0.2 |
| CELF1 (GeneID 10658) | 1 | 2.16 |
| CELF1 (GeneID 10658) | 2 | -2.11 |
| CELF1 (GeneID 10658) | 3 | 0.1 |
| MT2A (GeneID 4502) | 1 | -0.637 |
| MT2A (GeneID 4502) | 2 | 0.693 |
| MT2A (GeneID 4502) | 3 | -0.0842 |
| FN1 (GeneID 2335) | 1 | -0.168 |
| FN1 (GeneID 2335) | 2 | 2.35 |
| FN1 (GeneID 2335) | 3 | 1.51 |
| OSBPL8 (GeneID 114882) | 1 | -0.334 |
| OSBPL8 (GeneID 114882) | 2 | -0.422 |
| OSBPL8 (GeneID 114882) | 3 | -1.04 |
| FAM162B (GeneID 221303) | 1 | 0.534 |
| FAM162B (GeneID 221303) | 2 | -0.459 |
| FAM162B (GeneID 221303) | 3 | -0.177 |
| GASK1B (GeneID 51313) | 1 | -1.2 |
| GASK1B (GeneID 51313) | 2 | 0.0903 |
| GASK1B (GeneID 51313) | 3 | 0.382 |
| PDE2A (GeneID 5138) | 1 | 1.08 |
| PDE2A (GeneID 5138) | 2 | -0.48 |
| PDE2A (GeneID 5138) | 3 | -0.328 |
| SIN3A (GeneID 25942) | 1 | 5.93 (active) |
| SIN3A (GeneID 25942) | 2 | 4.55 |
| SIN3A (GeneID 25942) | 3 | 2.82 |
| TRMT112 (GeneID 51504) | 1 | -0.551 |
| TRMT112 (GeneID 51504) | 2 | -0.329 |
| TRMT112 (GeneID 51504) | 3 | -0.619 |
| SSMEM1 (GeneID 136263) | 1 | 0.373 |
| SSMEM1 (GeneID 136263) | 2 | 0.812 |
| SSMEM1 (GeneID 136263) | 3 | -0.782 |
| CCDC86 (GeneID 79080) | 1 | -0.916 |
| CCDC86 (GeneID 79080) | 2 | -0.0148 |
| CCDC86 (GeneID 79080) | 3 | -0.162 |
| RPL14 (GeneID 9045) | 1 | 2.61 |
| RPL14 (GeneID 9045) | 2 | 2.47 |
| RPL14 (GeneID 9045) | 3 | 4.63 |
| PAIP2 (GeneID 51247) | 1 | -0.0517 |
| PAIP2 (GeneID 51247) | 2 | 2.94 |
| PAIP2 (GeneID 51247) | 3 | -0.147 |
| YBX2 (GeneID 51087) | 1 | 2.84 |
| YBX2 (GeneID 51087) | 2 | -0.752 |
| YBX2 (GeneID 51087) | 3 | 0.637 |
| C12orf76 (GeneID 400073) | 1 | -1.11 |
| C12orf76 (GeneID 400073) | 2 | -0.498 |
| C12orf76 (GeneID 400073) | 3 | -0.465 |
| UCN (GeneID 7349) | 1 | 0.138 |
| UCN (GeneID 7349) | 2 | 1.73 |
| UCN (GeneID 7349) | 3 | 1.68 |
| NSFL1C (GeneID 55968) | 1 | 4.91 |
| NSFL1C (GeneID 55968) | 2 | 0.0818 |
| NSFL1C (GeneID 55968) | 3 | 0.163 |
| FAM86B1 (GeneID 85002) | 1 | -0.876 |
| FAM86B1 (GeneID 85002) | 2 | -0.274 |
| FAM86B1 (GeneID 85002) | 3 | 0.132 |
| MEGF9 (GeneID 1955) | 1 | 0.232 |
| MEGF9 (GeneID 1955) | 2 | 0.502 |
| MEGF9 (GeneID 1955) | 3 | -0.45 |

6 successive reagents from above, quoted:
| target gene | reagent no. | G2 robust z-score |
| --- | --- | --- |
| XCR1 (GeneID 2829) | 3 | -1.14 |
| PDK2 (GeneID 5164) | 1 | -0.197 |
| PDK2 (GeneID 5164) | 2 | 0.912 |
| PDK2 (GeneID 5164) | 3 | -0.766 |
| SPATA17 (GeneID 128153) | 1 | -0.114 |
| SPATA17 (GeneID 128153) | 2 | 4.47 |
